Reference: patent publication US4626533A, “7-(2-thienylacetamido)-3-acylaminomethyl-cephalosporins” (Biogal Gyogyszergyar, priority 1983, dated 1986)
For at least one compound, name, drawing or mass did not settle the structure.

Legend:
[1] = system: Gram-negative strains; assay: MIC determination, Gram-negative strains; format: cell-based; conditions: range over Gram-negative strains
Experimental: The examinations were carried out by using the bacteria strains listed hereinbelow: Gram-negative strains E. coli 35034 Klebsiella 52001 Klebsiella ATCC 1200 S. hartford 10063 P. mirabilis 60012 P. morganii 63002 P. rettgeri 65002 P. inconstans 67001 P. aeruginosa ATCC 27853

[2] = system: Gram-positive strains; assay: MIC determination, Gram-positive strains; format: cell-based; conditions: range over Gram-positive strains

Compound | Gram-negative strains MIC value [1] | Gram-positive strains MIC value [2]
O=C(Cc1ccc(Cl)cc1)NCC1=C(C(=O)O)N2C(=O)C(NC(=O)Cc3cccs3)C2SC1 (stereo not shown) [Example 5, 7-(2-thienyl)-acetylamino-3-(4-chlorophenylacetylamino)methylceph-3-em-4-carboxylic acid] | 50 → 100 | 0.06 → 100
O=C(Cc1cccs1)NC1C(=O)N2C(C(=O)O)=C(CNC(=O)c3c(Cl)cccc3Cl)CSC12 (stereo not shown) [Example 6, 7-(2-thienyl)acetylamino-3-(2,6-dichlorobenzoylamino)-methylceph-3-em-4-carboxylic acid] | 25 → 100 | 0.004 → 10
